Results: patent publication US20210292422A1
These are yes or no findings as the source states them, for the method shown. Some entries that bind do so weakly or less than the wild type. Each block holds one binder with its values, some of them ahead of it.

Legend:
FZD8 = target: T1, FZD8 (UniProt Q9H461); assay: column 'Specificity (Clone name)' of the component table; method not given there
T1 sequence (looked up): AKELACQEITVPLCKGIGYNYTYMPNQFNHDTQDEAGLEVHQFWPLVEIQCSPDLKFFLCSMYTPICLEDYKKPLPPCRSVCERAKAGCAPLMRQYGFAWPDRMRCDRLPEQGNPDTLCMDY

Frizzled 5 (Fzd5) = target: T2, Frizzled 5 (Fzd5) (UniProt Q13467); assay: BLI (Octet), FIG. 15A
T2 sequence (looked up): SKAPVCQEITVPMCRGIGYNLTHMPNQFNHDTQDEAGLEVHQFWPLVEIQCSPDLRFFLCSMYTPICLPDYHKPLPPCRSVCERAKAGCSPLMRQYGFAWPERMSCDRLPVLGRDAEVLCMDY

Frizzled 8 (Fzd8) = target: T3, Frizzled 8 (Fzd8) (UniProt Q9H461); assay: BLI (Octet), FIG. 15A
T3 sequence (looked up): T1 sequence (looked up)

binding (FZD8): binds
B1: F3: antiFZD5, 8 (2919) scFv (scFv)
scFv: EVQLVESGGGLVQPGGSLRLSCAASGFNISYSYIHWVRQAPGKGLEWVASIYSSSGSTSYADSVKGRFTISADTSKNTAYLQMNSLRAEDTAVYYCARGAIDYWGQGTLVTVSSGGGGSGGGGSGGGGSDIQMTQSPSSLSASVGDRVTITCRASQSVSSAVAWYQQKPGKAPKLLIYSASSLYSGVPSRFSGSRSGTDFTLTISSLQPEDFATYYCQQWYSSGHVLITFGQGTKVEIK

binding (Frizzled 5 (Fzd5)): binds | binding (Frizzled 8 (Fzd8)): binds
B2: F3 (2919) (scFv)
scFv: B1 scFv
